Results are given in words; binding and its absence hold for the method and conditions named. In cells and extracts the contact can be indirect. A yes stands for co-enrichment or nearness to the bait. Other partners may have been found.
B1: Dyskerin (protein, UniProt Q9ESX5 1-509)
chain: MADAEVITFPKKHKKKKDRKPLQEDDVAEIQHAEEFLIKPESKVAQLDTSQWPLLLKNFDKLNVRTAHYTPLPCGSNPLKREIGDYIRTGFINLDKPSNPSSHEVVAWIRRILRVEKTGHSGTLDPKVTGCLIVCIERATRLVKSQQSAGKEYVGIVRLHNAIEGGTQLSRALETLTGALFQRPPLIAAVKRQLRVRTIYESKMIEYDPERRLGIFWVSCEAGTYIRTLCVHLGLLLGVGGQMQELRRVRSGVMSEKDHMVTMHDVLDAQWLYDNHKDESYLRRVVYPLEKLLTSHKRLVMKDSAVNAICYGAKIMLPGLLRYEDGIEVNQEIVVITTKGEAICMAIALMTTAVISTCDHGIVAKIKRVIMERDTYPRKWGLGPKASQKKMMIKQGLLDKHGKPTDNTPATWKQDYIDYSDSGKNTLVTEAVQAPQLAAEAVNVIKRKRDSESESDETPTVPQLKEKKKKKDKKPKTVLESGGETGDGDNDTTKKKKKKKVKVVEEMSE
B2: Cavin1 (Ptrf) (protein, UniProt O54724 1-392)
chain: MEDVTLHIVERPYSGFPDASSEGPEPTQGEARATEEPSGTGSDELIKSDQVNGVLVLSLLDKIIGAVDQIQLTQAQLEERQAEMEGAVQSIQGELSKLGKAHATTSNTVSKLLEKVRKVSVNVKTVRGSLERQAGQIKKLEVNEAELLRRRNFKVMIYQDEVKLPAKLSVSKSLKESEALPEKEGDELGEGERPEDDTAAIELSSDEAVEVEEVIEESRAERIKRSGLRRVDDFKKAFSKEKMEKTKVRTRENLEKTRLKTKENLEKTRHTLEKRMNKLGTRLVPVERREKLKTSRDKLRKSFTPDHVVYARSKTAVYKVPPFTFHVKKIREGEVEVLKATEMVEVGPEDDEVGAERGEATDLLRGSSPDVHTLLEITEESDAVLVDKSDSD
B3: Tcf3 (endogenous), Q9Z1J1 1-584 (protein)
chain: MPQLGGGRGGAGGGGGGSGAGATSGGDDLGANDELIPFQDEGGEEQEPSSDTASAQRDLDEVKSSLVNESENQSSSSDSEAERRPQPARDAFQKPRDYFAEVRRPQDGAFFKGGAYPGYPFLMIPDLSSPYLSNGPLSPGGARTYLQMKWPLLDVPSSATVKDTRSPSPAHLSNKVPVVQHPHHMHPLTPLITYSNDHFSPASPPTHLSPEIDPKTGIPRPPHPSELSPYYPLSPGAVGQIPHPLGWLVPQQGQPMYSLPPGGFRHPYPALAMNASMSSLVSSRFPHMVAPAHPGLPTSGIPHPAIVSPIVKQEPAAPSLSPAVSAKSPVTVKKEEEKKPHVKKPLNAFMLYMKEMRAKVVAECTLKESAAINQILGRKWHNLSREEQAKYYELARKERQLHAQLYPTWSARDNYGKKKKRKREKQLSQTQSQQQIQEAEGALASKSKKPCIQYLPPEKPCDSPASSHGSALDSPATPSAALASPAAPAATHSEQAQPLSLTTKPEARAQLALHSAAFLSAKAAASNSSQMGSQPPLLSRPLPLGSMPAALLTSPPTFPATLHAHQALPVLQAQPLSLVTKSAH
modifications: here or on the partner: biotin on a specific lysine of the biotag (by birA)

The chains behind the UniProt entries cited, without tags or fusion partners.
UniProt P48432: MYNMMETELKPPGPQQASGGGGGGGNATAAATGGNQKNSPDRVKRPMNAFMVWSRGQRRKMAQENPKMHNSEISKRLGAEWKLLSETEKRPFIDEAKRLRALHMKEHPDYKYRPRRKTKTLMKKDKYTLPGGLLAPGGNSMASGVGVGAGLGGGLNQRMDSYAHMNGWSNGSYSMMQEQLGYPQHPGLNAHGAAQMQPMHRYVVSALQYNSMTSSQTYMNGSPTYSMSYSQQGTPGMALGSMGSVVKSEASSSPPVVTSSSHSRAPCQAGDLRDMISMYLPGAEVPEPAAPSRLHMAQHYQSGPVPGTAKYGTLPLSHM

Legend:
[1] = biological target: bioSox2 (bio-TEV-Sox2), biotinylated by birA (mouse) (UniProt P48432); assay: affinity purification with mass spectrometry; bioSox2 complexes from nuclear extracts of E18.5 lungs of bioSox2/birA mice held on streptavidin Dynabeads M-280, 4 °C, wash with 100 mM KCl and 0.02% NP-40; birA-only mice as control; MALDI-TOF MS; in triplicate
[2] = biological target: bioSox2 (bio-TEV-Sox2), biotinylated by birA (mouse), P48432; assay: as above; conditions: remark: other sources report otherwise

| Binder | binding [1] | binding [2] |
| --- | --- | --- |
| B1 | binds | – |
| B2 | binds | – |
| B3 | – | binds |

Reference: PMC5847153
